Experimental data as given in patent publication US6100237A, “Use of des-Aspartate-angiotensin I as an agent for the treatment and prevention of neointima formation, restenosis, and arteriosclerosis” (National University of Singapore, priority 1997, dated 2000).
Part of at least one peptide drawing is inferred or uncertain, most often the ends. No end group written: not given here.

What was measured:
angiotensin II = conditions: cited from earlier work
[1] = test system: balloon catheter-injured rat common carotid arteries; assay: Neointima formation in balloon catheter-injured common carotid artery; type: in vivo, Sprague Dawley rats; conditions: for % of Lumen Occlusion by Neointima, Left artery / % of Lumen Occlusion by Neointima, Right artery: 2 days pre- to 13 days post-catheterization; for % of Lumen Occlusion by Neointima, Left artery / Volume of Media, Left artery: injured left artery, mean ± SEM; for % of Lumen Occlusion by Neointima, Left artery / % of Lumen Occlusion by Neointima, Right artery / Volume of Media, Left artery: day 14; for % of Lumen Occlusion by Neointima, Left artery: saline control 88 ± 8; for % of Lumen Occlusion by Neointima, Right artery: intact right artery (control artery); for Volume of Media, Left artery: saline control 21 ± 1
[2] = test system: spontaneously hypertensive rat (SHR); assay: Chronic development of arteriosclerosis (abdominal aorta morphometry, tail cuff blood pressure), chronic oral administration, SHR; type: in vivo, spontaneously hypertensive rats (SHR); conditions: for chronic development of arteriosclerosis: SHR, oral 0.9 mg/kg/day (762 nmoles/kg) for 47 weeks, 0.9 mg/kg/day
Method: Five weeks old WKY and SHR were housed four to a cage. Four SHR and four WKY were orally administered 0.9 mg/kg/day of des-Aspartate-angiotensin I in 0.5 ml of saline daily for 47 weeks. Four SHR and another four WKY served as control animals and were administered 0.5 ml saline solution daily for 47 weeks. The weight of the animals were determined weekly till 12 weeks old, fortnightly till 27 weeks old and monthly till 47 weeks old. The dose of des-Aspartate-angiotensin I was adjusted to match the increase in weight as the animals grew. The dose of 0.9 mg/kg/day was calculated based on the maximum effective oral anti-cardiac hypertrophic dose (250 nmole per rat of average weight of 325 g) in the previous patent.
The blood pressure of the animals was determined by the tail cuff method on the 46th week of treatment. On the 47th week, animals were anaesthetized with chloral hydrate and a 3-cm section (measured from the left renal artery) of the abdominal aorta was removed and fixed in 4% paraformaldehyde and 1% glutaraldehyde. The aorta was processed for paraffin embedment. 10-μ thick sections were prepared and stained with toluidine blue. Fifty such sections, cut from the distal end of the artery, were used for quantitation. The area of the medial smooth muscle cells was quantitated morphometrically as described above. The area was converted to volume by multiplying by 10μ.

[3] = test system: experimentally-induced cardiac hypertrophic rats; conditions: cited from earlier work
normotensive WKY = assay: Chronic oral administration in normotensive WKY (abdominal aorta morphometry, tail cuff blood pressure); type: in vivo, Wistar Kyoto rats (WKY)

Sequence: RVYIHPFHL [des-Aspartate-angiotensin I]
- hypertrophic action of angiotensin II (angiotensin II; Min and Sim 1997): antagonize
- pressor action of angiotensin II (angiotensin II; Sim and Radhakrishnan 1994): antagonize
- % of Lumen Occlusion by Neointima, Left artery ([1]; 5 pmol/day i.v.): 47 ± 11%
- % of Lumen Occlusion by Neointima, Right artery ([1]; 5 pmol/day i.v.): 0%
- Volume of Media, Left artery ([1]; 5 pmol/day i.v.): 18 ± 2 μ^3 × 10^6
- % of Lumen Occlusion by Neointima, Left artery ([1]; 10 pmol/day i.v.): 24 ± 8%
- % of Lumen Occlusion by Neointima, Right artery ([1]; 10 pmol/day i.v.): 0%
- Volume of Media, Left artery ([1]; 10 pmol/day i.v.): 19 ± 3 μ^3 × 10^6
- % of Lumen Occlusion by Neointima, Left artery ([1]; 15 pmol/day i.v.): 27 ± 8%
- % of Lumen Occlusion by Neointima, Right artery ([1]; 15 pmol/day i.v.): 0%
- Volume of Media, Left artery ([1]; 15 pmol/day i.v.): 19 ± 2 μ^3 × 10^6
- effect on the medial smooth muscle cells ([1]; balloon catheter-injured carotid artery, i.v. dosing): no significant effect
- formation of neointima ([1]; doses as low as 5 and 10 pmoles per day, two days pre- to 13 days post-balloon catheterization, normotensive rats): significantly attenuate
- i.v. dose bringing about maximum anti-neointima action ([1]; i.v. for 15 days (2 days pre- and 13 days post-catheterization)): 10 pmol/day
- systolic blood pressure, treated versus control animals ([2]; 0.9 mg/kg/day oral, 46th week of treatment, listed as Des-Aspartate-angiotensin I): no significant difference
- systolic blood pressure, treated versus control animals ([2]; 0.9 mg/kg/day oral, 46th week of treatment, listed as DesAspartate-angiotensin I): no significant effect
- chronic development of arteriosclerosis [2]: significantly attenuate
- chronic development of arteriosclerosis ([2]; listed as Des-Aspartate-angiotensin I): significantly attenuated
- Volume of Medial Smooth Muscle Cells ([2]; Treated SHR, 0.9 mg/kg/day oral for 47 weeks, abdominal aorta, mean ± SEM, control SHR 224 ± 3): 170 ± 12 μ^3 × 10^6
- Blood Pressure ([2]; Treated SHR, 0.9 mg/kg/day oral, tail cuff, 46th week of treatment, control SHR 190 ± 35): 191 ± 8 mm Hg
- cardiac hypertrophy ([3]; administered either intravenously or orally, previous patent application): significantly and dose-dependently attenuated
- maximum effective oral anti-cardiac hypertrophic dose ([3]; oral, rat of average weight of 325 g, previous patent): 250 nmole per rat
- volume of the medial smooth muscle cell of the normotensive WKY (normotensive WKY; 0.9 mg/kg/day oral for 47 weeks): does not # affect
- Volume of Medial Smooth Muscle Cells (normotensive WKY; Treated WKY, 0.9 mg/kg/day oral for 47 weeks, abdominal aorta, mean ± SEM, control WKY 121 ± 5): 127 ± 6 μ^3 × 10^6
- Blood Pressure (normotensive WKY; Treated WKY, 0.9 mg/kg/day oral, tail cuff, 46th week of treatment, control WKY 132 ± 3): 134 ± 8 mm Hg
